Experimental data taken from article PMC4889050.
These are yes or no findings as the source states them, for the method shown. Binding seen in cells or lysates may run through a third protein. Here binding means that the protein was enriched with, or labelled near, the bait; the list need not be complete.

Sequences of proteins named here, by UniProt entry; tags and fusion partners are left off.
UniProt P45973: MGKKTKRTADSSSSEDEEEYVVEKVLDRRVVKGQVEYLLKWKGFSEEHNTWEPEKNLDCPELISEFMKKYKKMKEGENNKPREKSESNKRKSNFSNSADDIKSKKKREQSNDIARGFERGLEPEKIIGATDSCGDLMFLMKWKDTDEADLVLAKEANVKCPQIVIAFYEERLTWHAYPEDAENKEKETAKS
UniProt P83916: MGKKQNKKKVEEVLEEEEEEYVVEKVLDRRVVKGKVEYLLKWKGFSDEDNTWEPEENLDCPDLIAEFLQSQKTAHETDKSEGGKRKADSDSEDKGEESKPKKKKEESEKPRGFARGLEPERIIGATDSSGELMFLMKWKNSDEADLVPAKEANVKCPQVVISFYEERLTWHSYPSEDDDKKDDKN
UniProt P54727: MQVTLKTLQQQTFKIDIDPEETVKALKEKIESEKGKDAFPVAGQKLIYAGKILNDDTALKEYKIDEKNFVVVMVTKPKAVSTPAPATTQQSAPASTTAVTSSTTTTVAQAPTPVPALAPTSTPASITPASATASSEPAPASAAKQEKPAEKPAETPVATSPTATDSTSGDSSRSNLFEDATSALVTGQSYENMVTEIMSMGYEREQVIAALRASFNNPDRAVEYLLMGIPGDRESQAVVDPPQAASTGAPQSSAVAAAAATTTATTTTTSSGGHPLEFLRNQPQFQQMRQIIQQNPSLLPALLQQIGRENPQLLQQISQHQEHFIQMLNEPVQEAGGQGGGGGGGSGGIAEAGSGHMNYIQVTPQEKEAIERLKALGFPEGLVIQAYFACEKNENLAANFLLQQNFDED
UniProt P27694: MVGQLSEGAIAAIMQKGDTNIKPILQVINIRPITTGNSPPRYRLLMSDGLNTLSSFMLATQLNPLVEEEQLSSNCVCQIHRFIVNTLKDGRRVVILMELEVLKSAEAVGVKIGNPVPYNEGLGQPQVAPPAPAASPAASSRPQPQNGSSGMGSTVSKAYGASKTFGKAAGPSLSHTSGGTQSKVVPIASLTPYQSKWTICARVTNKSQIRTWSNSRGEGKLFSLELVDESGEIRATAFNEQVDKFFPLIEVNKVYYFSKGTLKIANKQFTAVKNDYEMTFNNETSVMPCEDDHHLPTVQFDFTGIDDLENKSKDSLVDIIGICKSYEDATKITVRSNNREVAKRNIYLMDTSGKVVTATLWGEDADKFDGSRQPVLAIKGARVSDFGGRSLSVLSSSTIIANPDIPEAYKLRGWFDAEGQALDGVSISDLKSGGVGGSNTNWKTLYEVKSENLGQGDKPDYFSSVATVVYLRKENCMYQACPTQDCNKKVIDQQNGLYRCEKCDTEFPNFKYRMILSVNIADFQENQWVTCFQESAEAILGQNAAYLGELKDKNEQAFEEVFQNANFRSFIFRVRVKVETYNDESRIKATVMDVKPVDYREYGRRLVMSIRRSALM
UniProt P78527: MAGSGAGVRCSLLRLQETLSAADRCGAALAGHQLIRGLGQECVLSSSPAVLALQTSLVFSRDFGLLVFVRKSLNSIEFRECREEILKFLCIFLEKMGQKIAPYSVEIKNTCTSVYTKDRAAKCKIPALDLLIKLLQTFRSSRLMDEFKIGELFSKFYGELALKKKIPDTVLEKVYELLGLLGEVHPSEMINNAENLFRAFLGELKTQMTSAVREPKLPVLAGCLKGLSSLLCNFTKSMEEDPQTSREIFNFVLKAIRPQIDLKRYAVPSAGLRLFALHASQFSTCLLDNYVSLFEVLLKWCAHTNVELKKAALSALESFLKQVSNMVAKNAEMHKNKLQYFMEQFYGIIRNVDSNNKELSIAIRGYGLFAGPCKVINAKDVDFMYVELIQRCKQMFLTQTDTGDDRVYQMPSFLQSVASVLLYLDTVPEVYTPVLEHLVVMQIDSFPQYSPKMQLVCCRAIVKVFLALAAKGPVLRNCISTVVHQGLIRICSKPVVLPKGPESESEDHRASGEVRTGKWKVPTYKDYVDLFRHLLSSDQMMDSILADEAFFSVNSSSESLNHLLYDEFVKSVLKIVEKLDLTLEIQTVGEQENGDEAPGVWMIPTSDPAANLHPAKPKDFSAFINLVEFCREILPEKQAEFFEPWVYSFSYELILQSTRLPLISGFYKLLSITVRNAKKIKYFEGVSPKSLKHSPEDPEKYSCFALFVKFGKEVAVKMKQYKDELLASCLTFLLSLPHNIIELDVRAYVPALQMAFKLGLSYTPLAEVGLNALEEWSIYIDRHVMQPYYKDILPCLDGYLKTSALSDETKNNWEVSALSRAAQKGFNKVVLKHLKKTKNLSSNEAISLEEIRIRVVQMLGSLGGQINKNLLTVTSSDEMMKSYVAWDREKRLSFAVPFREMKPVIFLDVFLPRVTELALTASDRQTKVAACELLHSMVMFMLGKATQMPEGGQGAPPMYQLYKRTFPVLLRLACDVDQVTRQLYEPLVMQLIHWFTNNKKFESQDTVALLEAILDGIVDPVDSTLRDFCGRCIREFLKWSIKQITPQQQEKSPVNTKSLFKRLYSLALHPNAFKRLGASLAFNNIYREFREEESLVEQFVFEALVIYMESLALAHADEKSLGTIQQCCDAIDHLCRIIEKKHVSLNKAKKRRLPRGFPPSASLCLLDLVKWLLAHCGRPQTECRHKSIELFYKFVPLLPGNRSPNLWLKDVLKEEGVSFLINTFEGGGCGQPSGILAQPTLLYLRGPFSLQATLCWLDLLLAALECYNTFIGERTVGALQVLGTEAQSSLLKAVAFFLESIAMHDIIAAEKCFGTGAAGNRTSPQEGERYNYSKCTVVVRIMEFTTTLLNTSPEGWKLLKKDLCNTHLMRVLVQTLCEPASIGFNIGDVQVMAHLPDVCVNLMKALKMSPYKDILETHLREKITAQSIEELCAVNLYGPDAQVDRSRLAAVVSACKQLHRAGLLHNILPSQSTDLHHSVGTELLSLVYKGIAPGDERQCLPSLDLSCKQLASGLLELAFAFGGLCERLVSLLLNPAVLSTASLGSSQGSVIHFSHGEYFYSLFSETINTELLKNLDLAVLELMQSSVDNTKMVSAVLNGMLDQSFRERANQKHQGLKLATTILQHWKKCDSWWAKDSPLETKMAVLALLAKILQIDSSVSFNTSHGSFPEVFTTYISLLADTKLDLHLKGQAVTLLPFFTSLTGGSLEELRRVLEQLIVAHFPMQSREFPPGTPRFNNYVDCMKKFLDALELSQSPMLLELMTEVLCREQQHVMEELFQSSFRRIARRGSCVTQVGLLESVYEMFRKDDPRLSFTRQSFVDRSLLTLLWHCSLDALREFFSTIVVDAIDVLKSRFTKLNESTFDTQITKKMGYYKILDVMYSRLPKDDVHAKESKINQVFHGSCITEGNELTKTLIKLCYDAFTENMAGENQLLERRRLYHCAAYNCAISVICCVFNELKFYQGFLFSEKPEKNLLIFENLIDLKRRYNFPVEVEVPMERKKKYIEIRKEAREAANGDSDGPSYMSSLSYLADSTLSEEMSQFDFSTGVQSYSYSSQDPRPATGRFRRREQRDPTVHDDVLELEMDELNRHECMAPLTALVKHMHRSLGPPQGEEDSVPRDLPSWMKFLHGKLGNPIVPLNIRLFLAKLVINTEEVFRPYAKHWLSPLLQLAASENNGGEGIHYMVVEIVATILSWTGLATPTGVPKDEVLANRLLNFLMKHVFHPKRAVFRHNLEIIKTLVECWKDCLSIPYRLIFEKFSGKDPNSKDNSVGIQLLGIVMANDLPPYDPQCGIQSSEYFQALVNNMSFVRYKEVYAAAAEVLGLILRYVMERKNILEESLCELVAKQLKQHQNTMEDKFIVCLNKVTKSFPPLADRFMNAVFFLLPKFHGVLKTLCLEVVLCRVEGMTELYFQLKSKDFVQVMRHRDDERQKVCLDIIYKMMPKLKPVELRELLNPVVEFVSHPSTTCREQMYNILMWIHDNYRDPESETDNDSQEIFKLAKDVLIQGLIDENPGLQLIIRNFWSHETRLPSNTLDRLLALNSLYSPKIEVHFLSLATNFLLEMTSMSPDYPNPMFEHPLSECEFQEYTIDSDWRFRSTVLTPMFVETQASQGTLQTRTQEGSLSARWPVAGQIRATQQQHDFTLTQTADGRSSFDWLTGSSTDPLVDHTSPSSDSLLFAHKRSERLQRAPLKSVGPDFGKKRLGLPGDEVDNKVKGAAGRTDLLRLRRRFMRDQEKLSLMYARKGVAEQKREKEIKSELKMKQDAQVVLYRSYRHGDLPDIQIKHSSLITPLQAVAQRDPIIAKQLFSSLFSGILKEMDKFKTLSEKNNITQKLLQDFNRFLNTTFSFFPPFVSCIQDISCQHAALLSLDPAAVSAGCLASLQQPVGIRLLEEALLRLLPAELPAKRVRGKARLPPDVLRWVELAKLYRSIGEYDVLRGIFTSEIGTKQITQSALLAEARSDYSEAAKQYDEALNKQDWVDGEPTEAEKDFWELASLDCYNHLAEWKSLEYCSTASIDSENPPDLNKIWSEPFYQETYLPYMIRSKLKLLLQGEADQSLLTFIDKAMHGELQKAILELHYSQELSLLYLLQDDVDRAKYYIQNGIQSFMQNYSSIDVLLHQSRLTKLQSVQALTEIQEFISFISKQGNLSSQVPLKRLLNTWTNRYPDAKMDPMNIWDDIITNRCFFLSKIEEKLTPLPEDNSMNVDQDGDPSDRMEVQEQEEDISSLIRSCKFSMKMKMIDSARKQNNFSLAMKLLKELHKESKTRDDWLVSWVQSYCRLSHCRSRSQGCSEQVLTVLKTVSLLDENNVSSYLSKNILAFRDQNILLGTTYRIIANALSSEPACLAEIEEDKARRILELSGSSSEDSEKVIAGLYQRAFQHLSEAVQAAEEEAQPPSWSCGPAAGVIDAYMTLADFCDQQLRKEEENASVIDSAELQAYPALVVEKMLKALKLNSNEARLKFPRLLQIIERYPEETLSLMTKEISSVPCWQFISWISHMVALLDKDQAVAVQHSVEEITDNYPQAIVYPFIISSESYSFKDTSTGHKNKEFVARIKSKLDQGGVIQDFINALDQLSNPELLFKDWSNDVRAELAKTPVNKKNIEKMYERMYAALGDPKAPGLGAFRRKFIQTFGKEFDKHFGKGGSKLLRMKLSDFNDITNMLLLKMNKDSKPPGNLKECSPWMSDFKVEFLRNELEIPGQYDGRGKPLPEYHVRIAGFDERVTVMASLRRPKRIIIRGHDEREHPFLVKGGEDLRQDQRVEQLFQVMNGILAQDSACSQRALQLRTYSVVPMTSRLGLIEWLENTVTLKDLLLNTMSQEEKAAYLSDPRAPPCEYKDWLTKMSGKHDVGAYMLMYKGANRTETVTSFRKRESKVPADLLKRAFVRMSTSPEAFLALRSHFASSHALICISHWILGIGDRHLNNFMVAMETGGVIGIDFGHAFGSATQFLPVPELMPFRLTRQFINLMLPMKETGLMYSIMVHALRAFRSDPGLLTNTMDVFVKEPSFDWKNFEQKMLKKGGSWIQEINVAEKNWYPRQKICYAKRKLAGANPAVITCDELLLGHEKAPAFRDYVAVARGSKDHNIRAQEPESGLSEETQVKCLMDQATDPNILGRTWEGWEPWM
UniProt P15927: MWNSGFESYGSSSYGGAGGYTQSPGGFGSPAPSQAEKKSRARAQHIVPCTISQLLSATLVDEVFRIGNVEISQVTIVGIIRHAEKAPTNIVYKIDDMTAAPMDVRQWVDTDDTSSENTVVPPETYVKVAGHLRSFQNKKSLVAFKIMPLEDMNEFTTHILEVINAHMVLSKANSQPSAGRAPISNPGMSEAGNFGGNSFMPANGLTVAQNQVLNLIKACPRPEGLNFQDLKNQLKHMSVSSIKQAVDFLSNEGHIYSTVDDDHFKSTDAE
UniProt Q13185: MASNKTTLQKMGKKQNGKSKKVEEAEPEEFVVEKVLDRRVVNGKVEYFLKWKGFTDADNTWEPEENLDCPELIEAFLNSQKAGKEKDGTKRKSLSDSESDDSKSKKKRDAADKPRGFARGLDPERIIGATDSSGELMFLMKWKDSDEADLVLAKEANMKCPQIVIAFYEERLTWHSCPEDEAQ
UniProt P12956: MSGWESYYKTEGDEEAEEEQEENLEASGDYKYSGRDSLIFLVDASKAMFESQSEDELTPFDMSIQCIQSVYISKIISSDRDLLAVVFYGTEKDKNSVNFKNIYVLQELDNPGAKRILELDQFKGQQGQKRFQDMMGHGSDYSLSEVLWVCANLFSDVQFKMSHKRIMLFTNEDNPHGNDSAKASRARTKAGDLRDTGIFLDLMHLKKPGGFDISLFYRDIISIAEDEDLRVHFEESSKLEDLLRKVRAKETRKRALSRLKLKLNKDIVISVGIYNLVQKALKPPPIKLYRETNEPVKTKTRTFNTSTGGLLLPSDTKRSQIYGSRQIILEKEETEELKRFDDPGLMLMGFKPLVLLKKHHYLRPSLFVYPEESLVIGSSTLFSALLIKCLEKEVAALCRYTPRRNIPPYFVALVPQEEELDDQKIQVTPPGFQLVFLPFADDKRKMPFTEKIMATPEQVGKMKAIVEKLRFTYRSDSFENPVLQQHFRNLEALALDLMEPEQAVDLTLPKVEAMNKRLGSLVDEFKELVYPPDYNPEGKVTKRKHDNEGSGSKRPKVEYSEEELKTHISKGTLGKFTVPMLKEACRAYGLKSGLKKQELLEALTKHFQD

Key:
Halo-WDR76 (human) [1] = target: T1, Halo-WDR76 (human) (UniProt Q9H967); test: affinity purification with mass spectrometry; Halo-tagged baits stably expressed in HEK293FRT; nuclear extract (0.42 M NaCl) on Magne HaloTag beads 1 hr at 4°C; washes 25 mM Tris-HCl pH 7.4, 136 mM NaCl, 2.7 mM KCl, 0.05% Nonidet P40; TEV elution; MudPIT, dNSAF, QSPEC against control purifications
T1 sequence: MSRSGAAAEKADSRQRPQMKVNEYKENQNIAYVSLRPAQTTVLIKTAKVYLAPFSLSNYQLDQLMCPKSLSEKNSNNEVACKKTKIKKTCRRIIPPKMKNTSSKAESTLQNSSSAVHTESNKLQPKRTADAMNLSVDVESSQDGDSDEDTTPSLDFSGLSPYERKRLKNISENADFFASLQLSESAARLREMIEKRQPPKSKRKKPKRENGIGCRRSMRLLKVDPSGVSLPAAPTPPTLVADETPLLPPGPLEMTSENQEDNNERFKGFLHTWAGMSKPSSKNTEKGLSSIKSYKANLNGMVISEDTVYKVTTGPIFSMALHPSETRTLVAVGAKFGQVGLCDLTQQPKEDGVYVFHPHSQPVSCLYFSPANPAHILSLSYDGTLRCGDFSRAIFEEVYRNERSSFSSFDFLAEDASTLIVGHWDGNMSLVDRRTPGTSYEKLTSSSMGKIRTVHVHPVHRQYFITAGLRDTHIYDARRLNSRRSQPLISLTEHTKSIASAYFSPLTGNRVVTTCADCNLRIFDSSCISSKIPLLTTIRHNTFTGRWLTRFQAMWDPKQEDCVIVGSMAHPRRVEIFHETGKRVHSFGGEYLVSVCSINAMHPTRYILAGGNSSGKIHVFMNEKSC

Halo-WDR76 (human) [2] = target: T1, Halo-WDR76 (human); test: affinity purification with mass spectrometry; nuclear extract (0.42 M NaCl) of HEK293FRT cells stably expressing Halo-WDR76 incubated with Magne HaloTag beads 1 hr at 4°C; washed with 25 mM Tris-HCl pH 7.4, 136 mM NaCl, 2.7 mM KCl, 0.05% Nonidet P40; eluted with AcTEV protease; MudPIT; enrichment over control purifications by QSPEC (z-score greater than 2, FDR less than 0.05)

## PARP1 (from UniProt P09874 1-1014)
Halo-WDR76 (human) [1]
  binding: binds

## SPIN1 (from UniProt Q9Y657 1-262)
Halo-WDR76 (human) [1]
  binding: binds

## CBX5 (from UniProt P45973 1-191)
Halo-WDR76 (human) [1]
  binding: binds

## DDB1 (from UniProt Q16531 1-1140)
Halo-WDR76 (human) [2]
  binding: binds

## XRCC5 (from UniProt P13010 1-732)
Halo-WDR76 (human) [1]
  binding: binds

## CBX1 (from UniProt P83916 1-185)
Halo-WDR76 (human) [1]
  binding: binds

## MSH3 (from UniProt P20585 1-1137)
Halo-WDR76 (human) [2]
  binding: binds

## RAD23B (from UniProt P54727 1-409)
Halo-WDR76 (human) [2]
  binding: binds

## RPA1 (from UniProt P27694 1-616)
Halo-WDR76 (human) [1]
  binding: binds

## PRKDC (from UniProt P78527 1-4128)
Halo-WDR76 (human) [2]
  binding: binds

## RPA2 (from UniProt P15927 1-270)
Halo-WDR76 (human) [2]
  binding: binds

## CBX3 (from UniProt Q13185 1-183)
Halo-WDR76 (human) [1]
  binding: binds

## XRCC6 (from UniProt P12956 1-609)
Halo-WDR76 (human) [1]
  binding: binds

B1: RFC1 (protein, UniProt P35251 1-1148)
chain: MDIRKFFGVIPSGKKLVSETVKKNEKTKSDEETLKAKKGIKEIKVNSSRKEDDFKQKQPSKKKRIIYDSDSESEETLQVKNAKKPPEKLPVSSKPGKISRQDPVTYISETDEEDDFMCKKAASKSKENGRSTNSHLGTSNMKKNEENTKTKNKPLSPIKLTPTSVLDYFGTGSVQRSNKKMVASKRKELSQNTDESGLNDEAIAKQLQLDEDAELERQLHEDEEFARTLAMLDEEPKTKKARKDTEAGETFSSVQANLSKAEKHKYPHKVKTAQVSDERKSYSPRKQSKYESSKESQQHSKSSADKIGEVSSPKASSKLAIMKRKEESSYKEIEPVASKRKENAIKLKGETKTPKKTKSSPAKKESVSPEDSEKKRTNYQAYRSYLNREGPKALGSKEIPKGAENCLEGLIFVITGVLESIERDEAKSLIERYGGKVTGNVSKKTNYLVMGRDSGQSKSDKAAALGTKIIDEDGLLNLIRTMPGKKSKYEIAVETEMKKESKLERTPQKNVQGKRKISPSKKESESKKSRPTSKRDSLAKTIKKETDVFWKSLDFKEQVAEETSGDSKARNLADDSSENKVENLLWVDKYKPTSLKTIIGQQGDQSCANKLLRWLRNWQKSSSEDKKHAAKFGKFSGKDDGSSFKAALLSGPPGVGKTTTASLVCQELGYSYVELNASDTRSKSSLKAIVAESLNNTSIKGFYSNGAASSVSTKHALIMDEVDGMAGNEDRGGIQELIGLIKHTKIPIICMCNDRNHPKIRSLVHYCFDLRFQRPRVEQIKGAMMSIAFKEGLKIPPPAMNEIILGANQDIRQVLHNLSMWCARSKALTYDQAKADSHRAKKDIKMGPFDVARKVFAAGEETAHMSLVDKSDLFFHDYSIAPLFVQENYIHVKPVAAGGDMKKHLMLLSRAADSICDGDLVDSQIRSKQNWSLLPAQAIYASVLPGELMRGYMTQFPTFPSWLGKHSSTGKHDRIVQDLALHMSLRTYSSKRTVNMDYLSLLRDALVQPLTSQGVDGVQDVVALMDTYYLMKEDFENIMEISSWGGKPSPFSKLDPKVKAAFTRAYNKEAHLTPYSLQAIKASRHSTSPSLDSEYNEELNEDDSQSDEKDQDAIETDAMIKKKTKSSKPSKPEKDKEPRKGKGKSSKK
Halo-WDR76 (human) [2]
  binding: binds

B2: XPC (protein, UniProt Q01831 1-940)
chain: MARKRAAGGEPRGRELRSQKSKAKSKARREEEEEDAFEDEKPPKKSLLSKVSQGKRKRGCSHPGGSADGPAKKKVAKVTVKSENLKVIKDEALSDGDDLRDFPSDLKKAHHLKRGATMNEDSNEEEEESENDWEEVEELSEPVLGDVRESTAFSRSLLPVKPVEIEIETPEQAKTRERSEKIKLEFETYLRRAMKRFNKGVHEDTHKVHLLCLLANGFYRNNICSQPDLHAIGLSIIPARFTRVLPRDVDTYYLSNLVKWFIGTFTVNAELSASEQDNLQTTLERRFAIYSARDDEELVHIFLLILRALQLLTRLVLSLQPIPLKSATAKGKKPSKERLTADPGGSSETSSQVLENHTKPKTSKGTKQEETFAKGTCRPSAKGKRNKGGRKKRSKPSSSEEDEGPGDKQEKATQRRPHGRERRVASRVSYKEESGSDEAGSGSDFELSSGEASDPSDEDSEPGPPKQRKAPAPQRTKAGSKSASRTHRGSHRKDPSLPAASSSSSSSKRGKKMCSDGEKAEKRSIAGIDQWLEVFCEQEEKWVCVDCVHGVVGQPLTCYKYATKPMTYVVGIDSDGWVRDVTQRYDPVWMTVTRKCRVDAEWWAETLRPYQSPFMDREKKEDLEFQAKHMDQPLPTAIGLYKNHPLYALKRHLLKYEAIYPETAAILGYCRGEAVYSRDCVHTLHSRDTWLKKARVVRLGEVPYKMVKGFSNRARKARLAEPQLREENDLGLFGYWQTEEYQPPVAVDGKVPRNEFGNVYLFLPSMMPIGCVQLNLPNLHRVARKLDIDCVQAITGFDFHGGYSHPVTDGYIVCEEFKDVLLTAWENEQAVIERKEKEKKEKRALGNWKLLAKGLLIRERLKRRYGPKSEAAAPHTDAGGGLSSDEEEGTSSQAEAARILAASWPQNREDEEKQKLKGGPKKTKREKKAAASHLFPFEQL
Halo-WDR76 (human) [2]
  binding: binds

B3: GAN (protein, UniProt Q9H2C0 1-597)
chain: MAEGSAVSDPQHAARLLRALSSFREESRFCDAHLVLDGEEIPVQKNILAAASPYIRTKLNYNPPKDDGSTYKIELEGISVMVMREILDYIFSGQIRLNEDTIQDVVQAADLLLLTDLKTLCCEFLEGCIAAENCIGIRDFALHYCLHHVHYLATEYLETHFRDVSSTEEFLELSPQKLKEVISLEKLNVGNERYVFEAVIRWIAHDTEIRKVHMKDVMSALWVSGLDSSYLREQMLNEPLVREIVKECSNIPLSQPQQGEAMLANFKPRGYSECIVTVGGEERVSRKPTAAMRCMCPLYDPNRQLWIELAPLSMPRINHGVLSAEGFLFVFGGQDENKQTLSSGEKYDPDANTWTALPPMNEARHNFGIVEIDGMLYILGGEDGEKELISMECYDIYSKTWTKQPDLTMVRKIGCYAAMKKKIYAMGGGSYGKLFESVECYDPRTQQWTAICPLKERRFGAVACGVAMELYVFGGVRSREDAQGSEMVTCKSEFYHDEFKRWIYLNDQNLCIPASSSFVYGAVPIGASIYVIGDLDTGTNYDYVREFKRSTGTWHHTKPLLPSDLRRTGCAALRIANCKLFRLQLQQGLFRIRVHSP
Halo-WDR76 (human) [1]
  binding: binds

B4: HELLS (protein, UniProt Q9NRZ9 1-838)
chain: MPAERPAGSGGSEAPAMVEQLDTAVITPAMLEEEEQLEAAGLERERKMLEKARMSWDRESTEIRYRRLQHLLEKSNIYSKFLLTKMEQQQLEEQKKKEKLERKKESLKVKKGKNSIDASEEKPVMRKKRGREDESYNISEVMSKEEILSVAKKNKKENEDENSSSTNLCVEDLQKNKDSNSIIKDRLSETVRQNTKFFFDPVRKCNGQPVPFQQPKHFTGGVMRWYQVEGMEWLRMLWENGINGILADEMGLGKTVQCIATIALMIQRGVPGPFLVCGPLSTLPNWMAEFKRFTPDIPTMLYHGTQEERQKLVRNIYKRKGTLQIHPVVITSFEIAMRDRNALQHCYWKYLIVDEGHRIKNMKCRLIRELKRFNADNKLLLTGTPLQNNLSELWSLLNFLLPDVFDDLKSFESWFDITSLSETAEDIIAKEREQNVLHMLHQILTPFLLRRLKSDVALEVPPKREVVVYAPLSKKQEIFYTAIVNRTIANMFGSSEKETIELSPTGRPKRRTRKSINYSKIDDFPNELEKLISQIQPEVDRERAVVEVNIPVESEVNLKLQNIMMLLRKCCNHPYLIEYPIDPVTQEFKIDEELVTNSGKFLILDRMLPELKKRGHKVLLFSQMTSMLDILMDYCHLRDFNFSRLDGSMSYSEREKNMHSFNTDPEVFIFLVSTRAGGLGINLTAADTVIIYDSDWNPQSDLQAQDRCHRIGQTKPVVVYRLVTANTIDQKIVERAAAKRKLEKLIIHKNHFKGGQSGLNLSKNFLDPKELMELLKSRDYEREIKGSREKVISDKDLELLLDRSDLIDQMNASGPIKEKMGIFKILENSEDSSPECLF
Halo-WDR76 (human) [1]
  binding: binds
